# Structures can show the parent of a compound that is named as a salt. ± gives the standard deviation of the averaged measurements. The list shows a part of the results. The data scatter; read single values as rough.
# Legend:
# hAMSC donor 1 [1] = test: Hoechst total cell count ratio vs vehicle control; higher = more cells (less toxicity)
# hAMSC donor 2 [2] = test: as above
# hAMSC donor 1 [3] = test: transgenic luciferase activity (RLU/mg protein) fold change vs vehicle control (ratio); higher = more transgene expression
# hAMSC donor 2 [4] = test: as above
# hAMSC donor 1 [5] = test: transfection efficiency (EGFP+ cells / Hoechst count) fold change vs vehicle control (ratio); hAMSC are human adipose-derived mesenchymal stem cells given an EGFP-luciferase plasmid by lipofection; higher = enhanced transfection
# hAMSC donor 2 [6] = test: as above
# [7] = priming compound concentration 0.2 µM
# [8] = priming compound concentration 1.7 µM
# [9] = priming compound concentration 13 µM
SMILES,Hoechst total cell count ratio (hAMSC donor 1 [1]; [7]),Hoechst total cell count ratio (hAMSC donor 1 [1]; [8]),Hoechst total cell count ratio (hAMSC donor 1 [1]; [9]),Hoechst total cell count ratio (hAMSC donor 2 [2]; [7]),Hoechst total cell count ratio (hAMSC donor 2 [2]; [8]),Hoechst total cell count ratio (hAMSC donor 2 [2]; [9]),transgenic luciferase activity (hAMSC donor 1 [3]; [7]),transgenic luciferase activity (hAMSC donor 1 [3]; [8]),transgenic luciferase activity (hAMSC donor 2 [4]; [7]),transgenic luciferase activity (hAMSC donor 2 [4]; [8]),transgenic luciferase activity (hAMSC donor 2 [4]; [9]),transfection efficiency (hAMSC donor 1 [5]; [7]),transfection efficiency (hAMSC donor 1 [5]; [8]),transfection efficiency (hAMSC donor 1 [5]; [9]),transfection efficiency (hAMSC donor 2 [6]; [7]),transfection efficiency (hAMSC donor 2 [6]; [8]),transfection efficiency (hAMSC donor 2 [6]; [9]),transgenic luciferase activity (hAMSC donor 1 [3]; [9])
O=C(O[C@@H]1C[C@@H]2C[C@H]3C[C@H](C1)N2CC3=O)c1c[nH]c2ccccc12 [Dolasetron mesylate],1.11 ± 0.057,1.11 ± 0.14,1.29 ± 0.026,1.02 ± 0.087,1.11 ± 0.11,1.25 ± 0.13,0.664 ± 0.053,1.32 ± 0.29,0.535 ± 0.35,0.894 ± 0.13,0.69 ± 0.1,1.4 ± 0.067,1.24 ± 0.29,1.02 ± 0.59,1 ± 0.27,1.22 ± 0.32,1.05 ± 0.19,
COc1ccc(OC)c(C(O)CNC(=O)CN)c1 (configuration not stated) [Midodrine hydrochloride],1.19 ± 0.12,1.09 ± 0.056,1.47 ± 0.15,1.22 ± 0.091,1.09 ± 0.021,1.58 ± 0.35,,0.747 ± 0.23,0.859 ± 0.044,0.48 ± 0.049,0.357 ± 0.15,0.926 ± 0.33,1.1 ± 0.14,0.951 ± 0.12,0.807 ± 0.069,1.13 ± 0.095,0.882 ± 0.18,0.291 ± 0.098
CC[C@H]1OC(=O)[C@H](C)[C@@H](O[C@H]2C[C@@](C)(OC)[C@@H](O)[C@H](C)O2)[C@H](C)[C@@H](O[C@@H]2O[C@H](C)C[C@H](N(C)C)[C@H]2O)[C@](C)(O)C[C@@H](C)C(=O)[C@H](C)[C@@H](O)[C@]1(C)O [Erythromycin],1.14 ± 0.099,1.15 ± 0.046,1.3 ± 0.16,1.31 ± 0.23,1.24 ± 0.089,1.31 ± 0.027,,0.285 ± 0.12,0.771 ± 0.14,0.845 ± 0.094,0.367 ± 0.035,1.37 ± 0.41,1.32 ± 0.052,0.67 ± 0.14,1.21 ± 0.25,1.04 ± 0.11,0.757 ± 0.051,0.86 ± 0.45
CC(=O)O[C@]1(C(C)=O)CC[C@H]2[C@@H]3C=C(C)C4=CC(=O)CC[C@]4(C)[C@H]3CC[C@@]21C [Megestrol acetate],1.45 ± 0.15,1.33 ± 0.061,1.43 ± 0.088,1.13 ± 0.17,1.31 ± 0.14,1.26 ± 0.26,,1.53 ± 0.16,0.474 ± 0.1,1.18 ± 0.18,1.4 ± 0.2,0.807 ± 0.28,1.74 ± 0.25,1.45 ± 0.44,0.8 ± 0.054,1.19 ± 0.098,1.29 ± 0.14,1.47 ± 0.67
CC1Cc2ccccc2N1NC(=O)c1ccc(Cl)c(S(N)(=O)=O)c1 (configuration not stated) [Indapamide],1.15 ± 0.14,1 ± 0.043,1.02 ± 0.059,1.3 ± 0.11,1.17 ± 0.027,1.27 ± 0.14,,0.291 ± 0.057,1.1 ± 0.42,0.663 ± 0.35,0.485 ± 0.17,0.724 ± 0.12,2.61 ± 1.7,0.81 ± 0.15,0.871 ± 0.039,0.945 ± 0.16,0.821 ± 0.062,1.1 ± 0.72
CC(COc1ccccc1)N(CCCl)Cc1ccccc1 (configuration not stated) [Phenoxybenzamine hydrochloride],1.68 ± 0.047,1.13 ± 0.049,1.67 ± 0.15,1.17 ± 0.027,1.16 ± 0.041,1.17 ± 0.24,,0.779 ± 0.095,0.849 ± 0.14,0.574 ± 0.044,0.615 ± 0.045,0.678 ± 0.11,1.18 ± 0.1,0.919 ± 0.1,0.836 ± 0.072,0.977 ± 0.31,1.11 ± 0.055,0.57 ± 0.33
Cc1cn([C@H]2C[C@H](N=[N+]=[N-])[C@@H](CO)O2)c(=O)[nH]c1=O [Zidovudine],1.41 ± 0.054,1.19 ± 0.062,1.5 ± 0.025,1.23 ± 0.094,1.13 ± 0.062,1.28 ± 0.21,,0.307 ± 0.12,1.02 ± 0.63,0.783 ± 0.13,0.738 ± 0.14,0.754 ± 0.14,1.11 ± 0.1,0.853 ± 0.23,0.997 ± 0.4,1.21 ± 0.11,1.03 ± 0.16,1.36 ± 0.67
CCCC(CCC)C(=O)O [Valproic acid],1.41 ± 0.31,1.12 ± 0.028,1.36 ± 0.17,1.25 ± 0.2,1.101 ± 0.0068,1.26 ± 0.18,,1.81 ± 0.84,0.734 ± 0.034,0.756 ± 0.26,0.599 ± 0.24,1.12 ± 0.37,1.46 ± 0.36,1.3 ± 0.51,0.743 ± 0.05,1.09 ± 0.19,0.967 ± 0.073,0.564 ± 0.18
O=C(O)c1cccnc1 [Nicotinic acid],1.17 ± 0.047,1.06 ± 0.15,1.45 ± 0.068,1.16 ± 0.24,1.23 ± 0.26,1.42 ± 0.072,0.761 ± 0.38,1.03 ± 0.37,0.742 ± 0.15,0.887 ± 0.13,0.539 ± 0.098,1.26 ± 0.092,1.85 ± 0.081,0.977 ± 0.29,0.921 ± 0.17,1.08 ± 0.25,0.942 ± 0.26,
C[C@]12CCC(=O)C=C1CC[C@@H]1[C@@H]2CC[C@@]2(C)[C@H]1CC[C@]2(O)C(=O)CO [11-Deoxycortisol],1.38 ± 0.15,1.3 ± 0.16,1.29 ± 0.036,1.03 ± 0.16,1.29 ± 0.058,1.31 ± 0.35,0.518 ± 0.029,1.41 ± 1,0.69 ± 0.24,0.654 ± 0.072,1.35 ± 0.2,0.966 ± 0.15,0.798 ± 0.15,1.15 ± 0.076,1.06 ± 0.29,0.868 ± 0.066,1.18 ± 0.28,
O=C1c2c(O)cc(O)cc2O[C@H](c2ccc(O)c(O)c2)[C@H]1O [Taxifolin-(+)],1.45 ± 0.22,1.26 ± 0.1,1.17 ± 0.25,1.07 ± 0.023,1.24 ± 0.11,0.805 ± 0.11,0.546 ± 0.21,1.66 ± 0.57,0.568 ± 0.16,0.637 ± 0.1,0.553 ± 0.25,0.929 ± 0.053,1.02 ± 0.056,1.15 ± 0.4,1.11 ± 0.091,0.959 ± 0.068,0.921 ± 0.11,
